This is an account of results in patent US20150250714A1, “PHARMACEUTICAL COMPOSITIONS AND DELIVERY DEVICES COMPRISING STINGING CELLS OR CAPSULES” (NANOCYTE (ISRAEL) LTD., priority 2010, published 2015).

Structures are written as SMILES. “And” between values parts separate entries of the source, which are not always exact repeats. Identical values can stand only once. Like-named read-outs stand apart in the source and are kept apart here.

For data set [1] the following is noted: 5-minute topical application, plasma.
The next data set is described as follows: in vivo. Conditions: white Landrance, pig, plasma, topical or ocular, 5 % scopolamine HBr solution on 15 cm^2 (volume not stated), group mean; for Cmax: peak plasma concentration (Cmax), 5-minute topical application.
The mark [2] stands for this setting: Control (gel only + scopolamine), individual pigs 3A-1A.
The mark [3] stands for this setting: Test-cnidocyst preparation, individual pigs 7A-4A.

For orientation: Cmax means the maximum level reached in the sampled fluid or tissue. A word on the Tmax: it is the time from dosing to the highest level. In the case of `CN1[C@@H]2C[C@@H](OC(=O)[C@H](CO)c3ccccc3)C[C@H]1[C@@H]1O[C@@H]12` [scopolamine], the AUC0-24 in data set [1] (setting [2]) was 816.1 hrX{pcg/ml} and 911.5 hrX{pcg/ml} and 1191.5 hrX{pcg/ml}; in data set [1] (setting [3]), 1155.3 hrX{pcg/ml} and 970.1 hrX{pcg/ml} and 2488.9 hrX{pcg/ml} and 1973.0 hrX{pcg/ml}. The AUCINF in data set [1] (setting [2]) is 946.5 hrX{pcg/ml} and 1028.7 hrX{pcg/ml} and 1316.9 hrX{pcg/ml}; in data set [1] (setting [3]) it was 1289.9 hrX{pcg/ml} and 1093.1 hrX{pcg/ml} and 2628.7 hrX{pcg/ml} and 2320.8 hrX{pcg/ml}. Further, the maximum concentration (Cmax) in data set [1] (setting [2]) is 148.4 {pcg/ml} and 98.4 {pcg/ml} and 155 {pcg/ml}; in data set [1] (setting [3]), 486.6 {pcg/ml} and 239.5 {pcg/ml} and 855.3 {pcg/ml} and 419.5 {pcg/ml}; in the data set “in vivo” (Cnidocysts-recipient animals), 0.5 ± 0.258 ng/mL; in “in vivo” (control animals (gel and scopolamine only)), 0.107 ± 0.061 ng/mL. The Tmax in “in vivo” (time to maximal concentration (Tmax), control animals (gel and scopolamine only)) was 2.7 ± 1.5 h.
